# Laboratory results reported in patent US11207423B2 (Northwestern University, priority 2016, dated 2021).
# Test: general procedure: Fmoc solid-phase peptide synthesis; Rink Amide MBHA resin; HATU/DIPEA
# Conditions: whole synthesis, TFA salts
substance,measurement,value
3-pyrrol-O-adipic-N-Sar-Tyr-Asn-Leu-Tyr-Arg-Val-Arg-Ser-amide,isolated yield,26%
